20 molecules from PubChem BioAssay AID328 (DTP/NCI, 2004) can be followed below.

Structures are written as SMILES. The list is a part of this screen's results and no random one: it is rich in T/C values a quarter to a half above the control, in often repeated tests (any T/C) and in doses without a T/C. Other doses and runs of a compound stand elsewhere. T/C is the treated group as % of the vehicle group. Some doses have a count of surviving animals in place of a T/C: the source holds a T/C of zero for them, seemingly a mark for toxic or unscored doses. Some doses without a T/C left all or most animals alive at the check, yet need not have been tolerated: the source hardly ever lists a survival T/C far under the control, and the zero likely stands for such cases as well. Survivors were counted at the toxicity check, usually on the fifth day, unless a day is given; later deaths do not show. Schedule codes are those of the source, taken here to give the interval after Q, in days (D) or hours (H), and the number of doses after X. For survival time, the PubChem record calls one and a half times the control and up active, and a quarter to a half above the control has no call in these data; cut-offs in other NCI protocols can differ. Some T/C values are followed by the survivors on the day toxicity was checked, most often the fifth; where none is given, no animal had died by that day. Some entries hold several experiments; the values are given in rising order.

The assay deals with BDF1 mice, P388 leukemia ip, median survival T/C. In words: NCI In Vivo Anticancer Drug Screen. Data for tumor model P388 Leukemia (intraperitoneal) in B6D2F1 (BDF1) mice. The note with it: T/C endpoint: median survival time, higher T/C = longer survival. Put shortly: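 Mice carrying the transplantable tumour receive compound or vehicle. Survival is followed in each arm, and the treated measure is divided by the vehicle measure.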

[1] abbreviates: dose: 100.0 mg/kg/injection, schedule: Q01DX009 (ip), vehicle: saline.
Where [2] appears, read: dose: 100.0 mg/kg/injection, schedule: Q01DX009 (ip), vehicle: Klucel (hydroxypropylcellulose) (HPC).
Where [3] appears, read: dose: 200.0 mg/kg/injection, schedule: Q04DX003 (ip), vehicle: Klucel (hydroxypropylcellulose) (HPC).
Setting [4] is: dose: 400.0 mg/kg/injection, schedule: Q01DX009 (ip), vehicle: Klucel (hydroxypropylcellulose) (HPC).
Setting [5] is: dose: 400.0 mg/kg/injection, schedule: Q04DX003 (ip), vehicle: Klucel (hydroxypropylcellulose) (HPC).
The mark [6] stands for this setting: dose: 100.0 mg/kg/injection, schedule: Q01DX009 (ip), vehicle: saline with Tween-80.
Setting [7] is: dose: 200.0 mg/kg/injection, schedule: Q04DX003 (ip), vehicle: saline with Tween-80.

As to `OCCN1CCN(CCCN2c3ccccc3Sc3cccnc32)CC1`, the T/C (dose: 50.0 mg/kg/injection, schedule: Q01DX009 (ip), vehicle: saline) is 126 % of control [5 of 6 alive]; the T/C under setting [1] was 133 and 137 % of control [5 of 6 alive]. Besides, the survivor count was 6 of 6 (dose: 75.0 mg/kg/injection, schedule: Q04DX003 (ip), vehicle: saline); 0 of 6 (dose: 150.0 mg/kg/injection, schedule: Q04DX003 (ip), vehicle: saline); 0 of 6 (dose: 200.0 mg/kg/injection, schedule: Q01DX009 (ip), vehicle: saline).
With `Cc1sc2c(c1-c1ccccc1)C(=O)CCCN2`, under “dose: 400.0 mg/kg/injection, schedule: Q01DX005 (ip), vehicle: saline with Tween-80”, the T/C was 128 % of control [5 of 6 alive].
Take `Cc1c(C)c(CC#N)c(C)c(C)c1CC#N`: the survivor count is on record as 6 of 6 under setting [2], 6 of 6 under setting [3], 6 of 6 under setting [4] and 6 of 6 under setting [5].
As for `CCCCCCCCCCCCCCCCCC(=O)[O][Hg][c]1ccccc1`, the survivor count (dose: 20.0 mg/kg/injection, schedule: Q01DX009 (ip), vehicle: other) is listed as 1 of 6; the survivor count (dose: 22.0 mg/kg/injection, schedule: Q01DX001 (ip), vehicle: Klucel (hydroxypropylcellulose) (HPC)) was 3 of 6; the survivor count (dose: 35.0 mg/kg/injection, schedule: Q04DX003 (ip), vehicle: Klucel (hydroxypropylcellulose) (HPC)) was 1 of 6; the survivor count (dose: 40.0 mg/kg/injection, schedule: Q01DX009 (ip), vehicle: other) is on record as 0 of 6.
As for `OCC1OC(n2cnc3c(SCc4ccccc4)nc(NO)nc32)C(O)C1O` (centres undefined), the T/C was 136 % of control (dose: 50.0 mg/kg/injection, schedule: Q01DX009 (ip), vehicle: acetone) and 142 % of control (dose: 100.0 mg/kg/injection, schedule: Q01DX009 (ip), vehicle: acetone).
As to `O=C1C=CC(=O)N1c1ccc(Cl)cc1`, the T/C was 145 % of control (dose: 5.0 mg/kg/injection, schedule: Q01DX009 (ip), vehicle: Klucel (hydroxypropylcellulose) (HPC)); 129 and 140 % of control (dose: 10.0 mg/kg/injection, schedule: Q01DX009 (ip), vehicle: Klucel (hydroxypropylcellulose) (HPC)); 137 % of control (dose: 20.0 mg/kg/injection, schedule: Q01DX009 (ip), vehicle: Klucel (hydroxypropylcellulose) (HPC)). For the same molecule, the survivor count is listed as 4 of 6 (dose: 40.0 mg/kg/injection, schedule: Q01DX009 (ip), vehicle: Klucel (hydroxypropylcellulose) (HPC)); 1 of 6 (dose: 50.0 mg/kg/injection, schedule: Q04DX003 (ip), vehicle: Klucel (hydroxypropylcellulose) (HPC)); 0 of 6 under setting [2]; 0 of 6 (dose: 100.0 mg/kg/injection, schedule: Q04DX003 (ip), vehicle: Klucel (hydroxypropylcellulose) (HPC)); 0 of 6 (dose: 200.0 mg/kg/injection, schedule: Q01DX009 (ip), vehicle: Klucel (hydroxypropylcellulose) (HPC)); 0 of 6 under setting [3]. Also, the survivor count runs as follows: under setting [4], 0 of 6; under setting [5], 1 of 6.
Take `CC(C)(O)/C=C/C(=O)C(C)(O)C1C(O)CC2(C)C3CC=C4C(CC(O)C(O)C4(C)C)C3(C)C(=O)CC12C` (centres undefined): the survivor count by setting is: (dose: 4.0 mg/kg/injection, schedule: Q01DX010 (ip), vehicle: carboxymethylcellulose (CMC)) 0 of 6; (dose: 8.0 mg/kg/injection, schedule: Q01DX010 (ip), vehicle: carboxymethylcellulose (CMC)) 0 of 6.
For the molecule `CCOC(=O)C/C(C)=N\NC(=O)c1ccncc1`, the survivor count (dose: 37.5 mg/kg/injection, schedule: Q01DX009 (ip), vehicle: saline with Tween-80) was 7 of 7.
With `O=C(O)CN(Cc1ccccc1)Sc1ccccc1[N+](=O)[O-]`, for the setting “dose: 100.0 mg/kg/injection, schedule: Q04DX003 (ip), vehicle: other”, the T/C is 137 % of control.
Regarding `CCOC1=CCCCC1`, the T/C reads like this: under setting [1], 135 % of control; (dose: 400.0 mg/kg/injection, schedule: Q01DX009 (ip), vehicle: saline) 130 % of control.
For the molecule `COc1c(Cl)cc2c(c1OC)N(C)C1N3C(=O)C4(C)SSC3(CC21O)C(=O)N4C` (centres undefined), the survivor count runs as follows: (dose: 0.12 mg/kg/injection, schedule: Q01DX009 (ip), vehicle: Klucel (hydroxypropylcellulose) (HPC)) 6 of 6; (dose: 0.25 mg/kg/injection, schedule: Q01DX009 (ip), vehicle: Klucel (hydroxypropylcellulose) (HPC)) 6 of 6; (dose: 0.5 mg/kg/injection, schedule: Q01DX009 (ip), vehicle: Klucel (hydroxypropylcellulose) (HPC)) 6 of 6. The T/C (dose: 1.0 mg/kg/injection, schedule: Q01DX009 (ip), vehicle: Klucel (hydroxypropylcellulose) (HPC)) was 142 % of control.
As to `C[C@]12C=CC(=O)C=C1CC[C@@H]1[C@@H]2[C@@H](O)C[C@@]2(C)[C@H]1CC[C@]2(O)C(=O)COC(=O)CCC(=O)O`, the T/C was 131 % of control under setting [6]; 131 % of control (dose: 100.0 mg/kg/injection, schedule: Q04DX003 (ip), vehicle: saline with Tween-80); 127 % of control under setting [7].
Take `C=CC[Se]c1nc(N)nc2c1ncn2C1OC(CO)C(O)C1O` (centres undefined): the survivor count (dose: 200.0 mg/kg/injection, schedule: Q04DX003 (ip), vehicle: saline) is reported as 1 of 6 and the survivor count (dose: 400.0 mg/kg/injection, schedule: Q04DX003 (ip), vehicle: saline) is 0 of 6.
As for `COC(=O)C(Sc1ccc(Cl)cc1)C1SC(=S)N(C)C1=O` (centres undefined), the T/C (dose: 50.0 mg/kg/injection, schedule: Q01DX009 (ip), vehicle: saline with Tween-80) is 129 % of control.
For `C=C1C(=O)OC2C1CC/C(C)=C/CCC1(C)OC21` (centres undefined), the survivor count (dose: 140.0 mg/kg/injection, schedule: Q01DX009 (ip), vehicle: Klucel (hydroxypropylcellulose) (HPC)) was 0 of 3 and the survivor count (dose: 280.0 mg/kg/injection, schedule: Q01DX009 (ip), vehicle: Klucel (hydroxypropylcellulose) (HPC)) is given as 0 of 3.
For `CCOC(=O)c1c[nH]c(=S)n1C`, the survivor count is, setting by setting: under setting [4], 1 of 6; under setting [5], 5 of 6.
Regarding `COC(=O)CCc1ccc(NP(=O)(N2CC2)N2CC2)cc1`, the T/C by setting is: under setting [6], 131 % of control; (dose: 132.0 mg/kg/injection, schedule: Q04DX003 (ip), vehicle: saline with Tween-80) 136 % of control [5 of 6 alive]; under setting [7], 136 % of control. For the same molecule, for the setting “dose: 150.0 mg/kg/injection, schedule: Q01DX009 (ip), vehicle: saline with Tween-80”, the survivor count is listed as 6 of 6.
As to `CCOc1cc(/C=N\Nc2nncn2N)ccc1N(CCCl)CCCl`, the T/C is 145 % of control (dose: 1.3 mg/kg/injection, schedule: Q04DX003 (ip), vehicle: saline with Tween-80); 140 % of control (dose: 2.0 mg/kg/injection, schedule: Q04DX003 (ip), vehicle: saline with Tween-80); 146 % of control (dose: 3.0 mg/kg/injection, schedule: Q04DX003 (ip), vehicle: saline with Tween-80). For the same molecule, the survivor count (dose: 60.0 mg/kg/injection, schedule: Q04DX003 (ip), vehicle: saline with Tween-80) is listed as 4 of 6.
Consider `CS(=O)(=O)OCc1c(O)c2c(c(O)c1COS(C)(=O)=O)C(=O)C=CC2=O`, for which the survivor count by setting is: (dose: 200.0 mg/kg/injection, schedule: Q04DX003 (ip), vehicle: water) 3 of 6; (dose: 400.0 mg/kg/injection, schedule: Q04DX003 (ip), vehicle: water) 5 of 6.
Consider `COC(=O)C1=COC(C)C2CN3CCc4c([nH]c5ccccc45)C3CC12` (centres undefined), for which the survivor count by setting is: (dose: 80.0 mg/kg/injection, schedule: Q01DX010 (ip), vehicle: saline) 7 of 7; (dose: 320.0 mg/kg/injection, schedule: Q01DX010 (ip), vehicle: saline) 6 of 7.
